Results taken from PubChem BioAssay AID504834 (National Center for Advancing Translational Sciences (NCATS), 2011).
Hit rate of the full screen: of about 320,000 compounds, about 22,000 (6.9%) were called active. Inconclusive means that the source gave no clear call. Such entries were picked first, then a sample of the others. Calls follow the shape of the dose curve; as a rule, active = well fitted inhibition curve with a large enough effect; inconclusive = small, poorly fitted or top-dose-only effect, or another doubt; inactive = no such curve, though single readings can be large or run the other way. Potencies beside an inconclusive call are fits to weak or partial responses and may not hold up.

assay: Primary qHTS for delayed death inhibitors of the malarial parasite plastid, 96 hour incubation; settings: P. falciparum luciferase reporter growth; series mostly up to 28.7 µM
Outline: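 Infected RBCs, 2% Hct / 0.05% parasitemia final; luciferase-reporter P. falciparum; cpd 96 h, 37 C, 5% CO2; luciferase detection reagent; luminescence.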
Potency is read from the fitted curve at half-maximal effect.

Structure (SMILES)	Potency
CCc1c(C)nc2c(-c3ccccc3)c[nH]n2c1=O	inactive
Cc1ccc(/C=C/C(=O)c2ccc([N+](=O)[O-])o2)cc1	inactive
O=C(C1CC1)N1CCN(c2ccc(F)cc2)CC1	inconclusive: 4.15 µM [inhibitor, partial curve, poor fit]
COc1ccc(N2CCN(C(=O)COC(=O)c3ccc(-n4nc(C)cc4C)cc3)CC2)cc1	inactive
CCc1nccn1-c1cc(C(C)(C)C)nc2c(-c3ccc(Cl)cc3)cnn12	active: 13.1 µM
N/C(=N\OC(=O)c1cc(Cl)ccc1Cl)c1cccnc1	inconclusive: 9.28 µM [inhibitor, single point]
Cc1ccc(-n2nc3c(=O)n(CC(=O)NCc4cccs4)nc(C)c3c2C)cc1	inactive
CC(C)c1onc(C(=O)N2CCC(C(N)=O)CC2)c1[N+](=O)[O-]	inconclusive: 10.4 µM [inhibitor, single point]
Cc1cc(C)cc(N(CC(=O)Nc2cc(C)ccc2C)S(=O)(=O)c2c(C)[nH]c(=O)[nH]c2=O)c1	inconclusive: 18.5 µM [inhibitor, partial curve, poor fit]
Cc1ccc(NS(=O)(=O)c2cccc(C(=O)NCCc3c[nH]c4ccccc34)c2)c(C)c1	inconclusive: 10.4 µM [inhibitor, single point]
CCC(=O)NC(c1ccc(Cl)cc1Cl)c1ccc2cccnc2c1O (stereo not drawn)	inactive
CN(C)C(=O)Cn1c(SCC(=O)NCc2ccc3c(c2)OCO3)nc2ccccc21	inactive
O=C(CSc1ccccc1)Nc1ccncc1	inactive
Cc1ccc(C(=O)N2CCCCCC2)cc1S(=O)(=O)Nc1ccccc1	inactive
Clc1ccc(OCCn2cnc3ccccc32)c(Cl)c1	inconclusive: 18.5 µM [inhibitor, single point]
CCC(=O)CC(c1ccccc1)c1c(O)c2ccccc2sc1=O (stereo not drawn)	inactive
CCN1C(=O)[C@@H]2[C@@H](c3ccc(-c4ccc(Cl)c(Cl)c4)c(OC)c3)N3CCCC[C@@]3(C(=O)OC)[C@@H]2C1=O	inconclusive: 2.08 µM [inhibitor, full curve, poor fit]
Cn1ccs/c1=N\C(=O)Nc1cccc(C(F)(F)F)c1	inactive
COc1cc(CCC(=O)Nc2nccs2)cc(OC)c1OC	inactive
CSc1nc(N)c2c3c(sc2n1)CN(C)CC3	active: 4.65 µM
CCC1(C)CC(CCNCc2ccc(N(C)C)cc2)(c2ccc(F)cc2)CCO1 (stereo not drawn)	inconclusive: 18.5 µM [inhibitor, single point]
CCCCCCCC(=O)Nc1cc(C(=O)NCc2ccc(C)cc2)ccc1N1CCC2(CC1)CC(c1ccccc1)=NO2	inconclusive: 18.5 µM [inhibitor, single point]
CCS(=O)(=O)N1CCN=C1SCc1cccc(F)c1	inactive
CCOc1cc(/C=N/NC(=O)CN2CCCCC2)ccc1O	inconclusive: 10.4 µM [inhibitor, single point]

A portion of the results above:
Structure (SMILES)	Potency
Cc1ccc(/C=C/C(=O)c2ccc([N+](=O)[O-])o2)cc1	inactive
O=C(C1CC1)N1CCN(c2ccc(F)cc2)CC1	inconclusive: 4.15 µM [inhibitor, partial curve, poor fit]

Carrying on:

Structure (SMILES)	Potency
c1nc(NCC2(N3CCOCC3)CCCCC2)c2ccsc2n1	inconclusive: 13.1 µM [inhibitor, partial curve, poor fit]
CC1CCN(c2ccc3nnc(CCC(=O)N4CCCCC4)n3n2)CC1	inconclusive: 10.4 µM [inhibitor, partial curve, poor fit]
CCCn1c(=N)n(CC(=O)c2ccc([N+](=O)[O-])cc2)c2ccccc21	inactive
CCCCC(=O)Nc1ccc(C(=O)NNC(=O)c2ccccc2Br)cc1	inactive
COc1ccc(N2CC(C(=O)Nc3ncccc3C)CC2=O)cc1 (stereo not drawn)	inconclusive: 5.86 µM [inhibitor, partial curve, poor fit]
O=C(NNC(=S)Nc1ccccc1)c1ccncc1	inactive
N#Cc1ccc(OCC(=O)NCC2(N3CCCCC3)CCCCC2)cc1	inconclusive: 16.5 µM [inhibitor, single point]
COCc1cc(=O)[nH]c(SCCS(=O)(=O)c2ccc(Cl)cc2Cl)n1	inactive
COc1ccccc1NC(=O)Nc1nc(CC(=O)Nc2ccc(OC)c(OC)c2)cs1	active: 5.22 µM
N/C(=N\OC(=O)Nc1ccccc1)c1cccc(C(F)(F)F)c1	inconclusive: 2.62 µM [inhibitor, single point]
COc1cc(NC(=O)c2ncn[nH]2)cc(OC)c1OC	inactive
Cc1ccc(OCC(=O)NCCNC(=O)c2cnccn2)cc1	inconclusive: 1.31 µM [inhibitor, single point]
COc1cccc(C(=O)Oc2cc3c4c(c2)C(C)=CC(C)(C)N4C(=O)C3=O)c1	inconclusive: 10.4 µM [inhibitor, partial curve, poor fit]
CSc1ccccc1NC(=O)COc1ccc(Cl)cc1Cl	inconclusive: 16.5 µM [inhibitor, single point]
COc1ccc(CNC(=O)[C@H](C)NC(=O)C2CCN(S(=O)(=O)c3ccccc3)CC2)cc1	inconclusive: 18.5 µM [inhibitor, single point]
O=C1CCCN2N=C(SCC(=O)Nc3nccs3)SC2=N1	inconclusive: 13.1 µM [inhibitor, single point]
CCC(C(=O)OCC(=O)N1CCN(c2ccc(OC)cc2)CC1)c1ccccc1 (stereo not drawn)	inactive
CC(=O)NCC(=O)NC1CCCc2c1cnn2-c1ccc(C(C)(C)C)cc1 (stereo not drawn)	inconclusive: 18.5 µM [inhibitor, single point]
COc1ccc2cc(C3=CC(=O)C[C@H](c4ccc5c(c4)OCO5)C3)ccc2c1	inactive
CCOc1ccc(C(=O)C(CCC(CN(C)C)C(=O)c2ccc(OCC)cc2)CN(C)C)cc1 (stereo not drawn)	inconclusive: 10.4 µM [inhibitor, single point]
CCC(NC(=O)c1ccccc1NC(=O)c1ccccc1)C(=O)OC (stereo not drawn)	inactive
Cc1cc(C)cc(NC(=O)NCC2CCN(Cc3cc(C)ccc3C)CC2)c1	inconclusive: 3.7 µM [inhibitor, partial curve]
CCOC(=O)c1sc2nc(N3CCOCC3)c3c(c2c1N)CCN(C)C3	inconclusive: 18.5 µM [inhibitor, single point]
COc1ccc(S(=O)(=O)N2CCc3ccccc32)cc1C(=O)NCCc1ccccn1	inconclusive: 6.57 µM [inhibitor, partial curve, poor fit]
